Experimental data from PubChem BioAssay AID248 (DTP/NCI, 2004).
The list does not hold the whole screen: it gathers tests that were run many times, whatever their T/C, doses with no T/C, and many T/C values between a quarter and a half above the control. Further doses and runs are listed elsewhere. T/C is the treated group as % of the vehicle group. Some entries give survivors of the animals treated and no T/C: the source holds a T/C of zero for them, seemingly a mark for toxic or unscored doses. Survivors were counted at the toxicity check, usually on the fifth day, unless a day is given; later deaths do not show. Schedule codes are those of the source, read here as Q, the interval in days (D) or hours (H), X, the number of doses. Some schedule codes hold Z or #, which are not explained here. Some structures stand for samples that the source files as different forms (salt, stereo form or complex); doses refer to the form tested. Where survival is the endpoint, the PubChem record calls one and a half times the control and up active, and a quarter to a half above the control has no call in these data; cut-offs in other NCI protocols can differ. Some entries hold several experiments; their values stand side by side, smallest first. Some T/C values carry the count of animals alive at the toxicity check (mostly the fifth day); without a count, all were alive then.

Test system: L1210 leukemia ip in BDF1 mice, survival T/C
Test: NCI In Vivo Anticancer Drug Screen. Data for tumor model L1210 Leukemia (intraperitoneal) in B6D2F1 (BDF1) mice
Conditions: higher T/C = longer survival

SMILES: O=C(Nc1ccc(C2=NCCN2)cc1)c1ccc(C(=O)Nc2ccc(C3=NCCN3)cc2)cc1
- T/C (T/C endpoint: mean survival time, dose: 0.15 mg/kg/injection, schedule: Q01DX Z (ip), vehicle: saline): 137 % of control [5 of 6 alive]
- T/C (T/C endpoint: mean survival time, dose: 0.31 mg/kg/injection, schedule: Q01DX Z (ip), vehicle: saline): 127 % of control
- T/C (T/C endpoint: mean survival time, dose: 0.63 mg/kg/injection, schedule: Q01DX Z (ip), vehicle: saline): 133 % of control
- T/C (T/C endpoint: mean survival time, dose: 1.25 mg/kg/injection, schedule: Q01DX Z (ip), vehicle: saline): 130 % of control
- T/C (T/C endpoint: mean survival time, dose: 1.25 mg/kg/injection, schedule: Q#A X Z (ip), vehicle: saline): 126 % of control
- T/C (T/C endpoint: mean survival time, dose: 2.0 mg/kg/injection, schedule: Q#A X Z (ip), vehicle: saline): 131 % of control
- T/C (T/C endpoint: mean survival time, dose: 2.5 mg/kg/injection, schedule: Q#A X Z (ip), vehicle: saline): 137 and 138 % of control
- T/C (T/C endpoint: mean survival time, dose: 4.0 mg/kg/injection, schedule: Q01DX Z (ip), vehicle: methylcellulose (MC)): 130 % of control
- T/C (T/C endpoint: mean survival time, dose: 5.0 mg/kg/injection, schedule: Q01DX015 (ip), vehicle: other): 143 % of control
- T/C (T/C endpoint: mean survival time, dose: 5.0 mg/kg/injection, schedule: Q01DX Z (sc), vehicle: acid diluted with saline): 149 % of control
- T/C (T/C endpoint: mean survival time, dose: 6.0 mg/kg/injection, schedule: Q01DX Z (ip), vehicle: methylcellulose (MC)): 139 % of control
- T/C (T/C endpoint: mean survival time, dose: 7.5 mg/kg/injection, schedule: Q01DX Z (ip), vehicle: carboxymethylcellulose (CMC)): 125 % of control
- T/C (T/C endpoint: mean survival time, dose: 8.0 mg/kg/injection, schedule: Q#A X Z (ip), vehicle: saline): 135 % of control
- T/C (T/C endpoint: mean survival time, dose: 9.0 mg/kg/injection, schedule: Q01DX015 (ip), vehicle: carboxymethylcellulose (CMC)): 131 % of control
- T/C (T/C endpoint: mean survival time, dose: 9.0 mg/kg/injection, schedule: Q01DX015 (ip), vehicle: other): 129 % of control
- T/C (T/C endpoint: mean survival time, dose: 9.0 mg/kg/injection, schedule: Q01DX Z (ip), vehicle: methylcellulose (MC)): 132 % of control
- T/C (T/C endpoint: mean survival time, dose: 13.0 mg/kg/injection, schedule: Q01DX Z (ip), vehicle: methylcellulose (MC)): 143 % of control
- T/C (T/C endpoint: mean survival time, dose: 14.0 mg/kg/injection, schedule: Q01DX015 (ip), vehicle: carboxymethylcellulose (CMC)): 141 % of control
- T/C (T/C endpoint: mean survival time, dose: 14.0 mg/kg/injection, schedule: Q01DX015 (ip), vehicle: other): 133 % of control
- T/C (T/C endpoint: mean survival time, dose: 14.0 mg/kg/injection, schedule: Q01DX Z (ip), vehicle: methylcellulose (MC)): 147 % of control
- T/C (T/C endpoint: mean survival time, dose: 15.6 mg/kg/injection, schedule: Q01DX Z (ip), vehicle: other): 146 % of control
- T/C (T/C endpoint: mean survival time, dose: 16.0 mg/kg/injection, schedule: Q01DX Z (ip), vehicle: methylcellulose (MC)): 132 % of control
- T/C (T/C endpoint: mean survival time, dose: 16.0 mg/kg/injection, schedule: Q01DX Z (ip), vehicle: saline): 126 % of control
- T/C (T/C endpoint: mean survival time, dose: 16.0 mg/kg/injection, schedule: Q#A X Z (ip), vehicle: methylcellulose (MC)): 128 % of control
- T/C (T/C endpoint: mean survival time, dose: 17.5 mg/kg/injection, schedule: Q07DX Z (ip), vehicle: saline): 127 % of control
- survivor count (T/C endpoint: mean survival time, dose: 20.0 mg/kg/injection, schedule: Q01DX Z (iv), vehicle: acid diluted with saline): 0 of 7
- T/C (T/C endpoint: mean survival time, dose: 21.0 mg/kg/injection, schedule: Q01DX Z (ip), vehicle: methylcellulose (MC)): 144 % of control
- T/C (T/C endpoint: mean survival time, dose: 28.0 mg/kg/injection, schedule: Q07DX Z (ip), vehicle: saline): 138 % of control
- T/C (T/C endpoint: mean survival time, dose: 30.0 mg/kg/injection, schedule: Q01DX015 (ip), vehicle: other): 127 % of control
- T/C (T/C endpoint: mean survival time, dose: 30.0 mg/kg/injection, schedule: Q01DX Z (ip), vehicle: carboxymethylcellulose (CMC)): 146 % of control
- T/C (T/C endpoint: mean survival time, dose: 32.0 mg/kg/injection, schedule: Q01DX Z (ip), vehicle: methylcellulose (MC)): 143 % of control
- survivor count (T/C endpoint: mean survival time, dose: 32.0 mg/kg/injection, schedule: Q01DX Z (ip), vehicle: saline): 1 of 7
- T/C (T/C endpoint: mean survival time, dose: 35.0 mg/kg/injection, schedule: Q01DX001 (ip), vehicle: saline): 103, 125, 137, 144 % of control
- T/C (T/C endpoint: mean survival time, dose: 35.0 mg/kg/injection, schedule: Q07DX Z (ip), vehicle: saline): 143 % of control
- survivor count (T/C endpoint: mean survival time, dose: 40.0 mg/kg/injection, schedule: Q01DX005 (iv), vehicle: saline): 3 of 6
- survivor count (T/C endpoint: mean survival time, dose: 40.0 mg/kg/injection, schedule: Q01DX Z (iv), vehicle: acid diluted with saline): 0 of 7
- T/C (T/C endpoint: mean survival time, dose: 45.0 mg/kg/injection, schedule: Q01DX015 (ip), vehicle: other): 134 % of control
- T/C (T/C endpoint: mean survival time, dose: 48.0 mg/kg/injection, schedule: Q03DX Z (ip), vehicle: saline): 143 % of control
- T/C (T/C endpoint: mean survival time, dose: 56.0 mg/kg/injection, schedule: Q07DX Z (ip), vehicle: methylcellulose (MC)): 127 % of control
- T/C (T/C endpoint: mean survival time, dose: 56.0 mg/kg/injection, schedule: Q07DX Z (ip), vehicle: saline): 133 % of control
- T/C (T/C endpoint: mean survival time, dose: 60.0 mg/kg/injection, schedule: Q01DX015 (ip), vehicle: other): 135 % of control
- T/C (T/C endpoint: mean survival time, dose: 60.0 mg/kg/injection, schedule: Q01DX Z (ip), vehicle: carboxymethylcellulose (CMC)): 134 % of control
- T/C (T/C endpoint: mean survival time, dose: 62.5 mg/kg/injection, schedule: Q01DX004 (im), vehicle: saline): 125 % of control
- T/C (T/C endpoint: mean survival time, dose: 64.0 mg/kg/injection, schedule: Q01DX009 (ip), vehicle: saline): 134 and 136 % of control
- T/C (T/C endpoint: mean survival time, dose: 89.0 mg/kg/injection, schedule: Q01DX001 (ip), vehicle: other): 130 % of control
- T/C (T/C endpoint: mean survival time, dose: 96.0 mg/kg/injection, schedule: Q03DX Z (ip), vehicle: methylcellulose (MC)): 140 % of control
- T/C (T/C endpoint: mean survival time, dose: 112.0 mg/kg/injection, schedule: Q07DX Z (ip), vehicle: methylcellulose (MC)): 139 % of control
- T/C (T/C endpoint: mean survival time, dose: 112.0 mg/kg/injection, schedule: Q07DX Z (ip), vehicle: saline): 148 % of control
- T/C (T/C endpoint: mean survival time, dose: 125.0 mg/kg/injection, schedule: Q01DX004 (im), vehicle: saline): 142 % of control
- T/C (T/C endpoint: mean survival time, dose: 125.0 mg/kg/injection, schedule: Q01DX Z (sc), vehicle: steroid suspending solution): 129 % of control
- T/C (T/C endpoint: mean survival time, dose: 128.0 mg/kg/injection, schedule: Q01DX009 (ip), vehicle: saline): 142 % of control
- T/C (T/C endpoint: mean survival time, dose: 130.0 mg/kg/injection, schedule: Q01DX001 (ip), vehicle: other): 147 % of control
- T/C (T/C endpoint: mean survival time, dose: 140.0 mg/kg/injection, schedule: Q01DX001 (ip), vehicle: saline): 144 % of control
- survivor count (T/C endpoint: mean survival time, dose: 192.0 mg/kg/injection, schedule: Q03DX Z (ip), vehicle: saline): 1 of 6
- T/C (T/C endpoint: mean survival time, dose: 195.0 mg/kg/injection, schedule: Q01DX001 (ip), vehicle: carboxymethylcellulose (CMC)): 138 % of control
- T/C (T/C endpoint: mean survival time, dose: 195.0 mg/kg/injection, schedule: Q01DX001 (ip), vehicle: saline): 129 % of control
- survivor count (T/C endpoint: mean survival time, dose: 224.0 mg/kg/injection, schedule: Q07DX Z (ip), vehicle: methylcellulose (MC)): 1 of 7
- survivor count (T/C endpoint: mean survival time, dose: 224.0 mg/kg/injection, schedule: Q07DX Z (ip), vehicle: saline): 3 of 6
- survivor count (T/C endpoint: mean survival time, dose: 250.0 mg/kg/injection, schedule: Q01DX Z (ip), vehicle: other): 1 of 7
- T/C (T/C endpoint: mean survival time, dose: 250.0 mg/kg/injection, schedule: Q01DX Z (sc), vehicle: steroid suspending solution): 130 % of control
- T/C (T/C endpoint: mean survival time, dose: 280.0 mg/kg/injection, schedule: Q01DX001 (ip), vehicle: saline): 131, 149, 241, 296 % of control [5 of 6 alive]
- T/C (T/C endpoint: mean survival time, dose: 320.0 mg/kg/injection, schedule: Q01DX Z (ip), vehicle: saline): 148 % of control [5 of 6 alive]
- T/C (T/C endpoint: mean survival time, dose: 320.0 mg/kg/injection, schedule: Q#A X Z (ip), vehicle: saline): 148 % of control
- survivor count (T/C endpoint: mean survival time, dose: 384.0 mg/kg/injection, schedule: Q03DX Z (ip), vehicle: methylcellulose (MC)): 0 of 7
- survivor count (T/C endpoint: mean survival time, dose: 444.0 mg/kg/injection, schedule: Q01DX001 (ip), vehicle: carboxymethylcellulose (CMC)): 0 of 10
- survivor count (T/C endpoint: mean survival time, dose: 444.0 mg/kg/injection, schedule: Q01DX001 (ip), vehicle: other): 3 of 10
- T/C (T/C endpoint: mean survival time, dose: 444.0 mg/kg/injection, schedule: Q01DX001 (ip), vehicle: saline): 133 % of control
- survivor count (T/C endpoint: mean survival time, dose: 448.0 mg/kg/injection, schedule: Q07DX Z (ip), vehicle: methylcellulose (MC)): 3 of 7
- survivor count (T/C endpoint: mean survival time, dose: 448.0 mg/kg/injection, schedule: Q07DX Z (ip), vehicle: saline): 0 of 6
- T/C (T/C endpoint: mean survival time, dose: 560.0 mg/kg/injection, schedule: Q01DX001 (ip), vehicle: saline): 135 % of control
- survivor count (T/C endpoint: mean survival time, dose: 666.0 mg/kg/injection, schedule: Q01DX001 (ip), vehicle: carboxymethylcellulose (CMC)): 0 of 10
- survivor count (T/C endpoint: mean survival time, dose: 666.0 mg/kg/injection, schedule: Q01DX001 (ip), vehicle: other): 2 of 10
- survivor count (T/C endpoint: mean survival time, dose: 896.0 mg/kg/injection, schedule: Q07DX Z (ip), vehicle: methylcellulose (MC)): 1 of 7
- survivor count (T/C endpoint: mean survival time, dose: 1120.0 mg/kg/injection, schedule: Q01DX001 (ip), vehicle: saline): 3 of 6
- survivor count (T/C endpoint: mean survival time, dose: 1120.0 mg/kg/injection, schedule: Q07DX Z (ip), vehicle: saline): 2 of 6
- survivor count (T/C endpoint: mean survival time, dose: 1280.0 mg/kg/injection, schedule: Q01DX Z (ip), vehicle: saline): 1 of 6
- T/C (T/C endpoint: mean survival time, dose: 1875.0 micrograms/kg/injection, schedule: Q01DX Z (ip), vehicle: carboxymethylcellulose (CMC)): 131 % of control
- T/C (T/C endpoint: median survival time, dose: 32.0 mg/kg/injection, schedule: Q01DX009 (ip), vehicle: saline): 138 % of control
- T/C (T/C endpoint: median survival time, dose: 64.0 mg/kg/injection, schedule: Q01DX009 (ip), vehicle: saline): 127 % of control
